Results are given in words; binding and its absence hold for the method and conditions named. Some binding calls cover weakened binding; strength is not graded here.

Chains of the proteins cited; added tags and fusions are not shown. Lines headed by an entry give the natural chain unless they say otherwise; changes in a name come on top. A line that says so, or that is headed by a name, gives the form on record, which may keep a tag or linker. Residues count along the entry.
human Caspase-1 p10 fragment (P29466, residues 317-404): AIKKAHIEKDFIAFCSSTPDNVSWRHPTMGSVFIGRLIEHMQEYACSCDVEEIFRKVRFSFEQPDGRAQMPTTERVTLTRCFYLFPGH
human Caspase-1 p20 fragment (C285A) (P29466, form named): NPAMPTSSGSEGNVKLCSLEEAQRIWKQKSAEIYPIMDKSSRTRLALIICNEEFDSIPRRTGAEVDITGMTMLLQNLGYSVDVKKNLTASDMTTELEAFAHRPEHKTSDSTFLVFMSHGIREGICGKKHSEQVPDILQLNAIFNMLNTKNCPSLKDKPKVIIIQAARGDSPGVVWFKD

The assay has as its target human Caspase-1 p20 fragment (C285A) (human) (UniProt P29466). Description: co-purification after refolding (His affinity, cation exchange, gel filtration); p20 and p10 co-expressed, inclusion bodies solubilised in GnHCl, refolded by rapid dilution, purified on HisTrap HP, SP HP HiTrap and Superdex 75.

In the case of “human Caspase-1 p10 fragment (from UniProt P29466 317-404) (domain or fragment)”, the binding entry was “binds”.

(Values after article PMC10369405 (JACS Au, 2023).)
